Measured values from PMC11114116 (Molecular Pharmacology, 2024).

Biological target: T1, human FABP1 (hFABP1) (Homo sapiens, UniProt P07148)
T1 sequence (P07148 1-127): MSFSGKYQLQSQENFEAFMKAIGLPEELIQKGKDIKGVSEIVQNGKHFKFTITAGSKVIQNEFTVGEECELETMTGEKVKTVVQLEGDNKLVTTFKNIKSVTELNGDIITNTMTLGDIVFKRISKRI
Assay: DAUDA displacement assay for hFABP1 binding

## CN1C(=O)CN=C(c2ccccc2)c2cc(Cl)ccc21 [Diazepam, diazepam]
  EC50: > 50 µM
